The list shows a part of the results. The data scatter; read single values as rough.

Chains of the proteins cited; added tags and fusions are not shown. Lines headed by an entry give the natural chain unless they say otherwise; changes in a name come on top. Residues count along the entry.
UniProt P07919: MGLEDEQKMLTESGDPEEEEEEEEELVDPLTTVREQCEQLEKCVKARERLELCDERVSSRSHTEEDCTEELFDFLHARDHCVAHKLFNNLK
UniProt Q8NFA0, 1316-1336: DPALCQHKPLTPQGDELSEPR
UniProt P11172: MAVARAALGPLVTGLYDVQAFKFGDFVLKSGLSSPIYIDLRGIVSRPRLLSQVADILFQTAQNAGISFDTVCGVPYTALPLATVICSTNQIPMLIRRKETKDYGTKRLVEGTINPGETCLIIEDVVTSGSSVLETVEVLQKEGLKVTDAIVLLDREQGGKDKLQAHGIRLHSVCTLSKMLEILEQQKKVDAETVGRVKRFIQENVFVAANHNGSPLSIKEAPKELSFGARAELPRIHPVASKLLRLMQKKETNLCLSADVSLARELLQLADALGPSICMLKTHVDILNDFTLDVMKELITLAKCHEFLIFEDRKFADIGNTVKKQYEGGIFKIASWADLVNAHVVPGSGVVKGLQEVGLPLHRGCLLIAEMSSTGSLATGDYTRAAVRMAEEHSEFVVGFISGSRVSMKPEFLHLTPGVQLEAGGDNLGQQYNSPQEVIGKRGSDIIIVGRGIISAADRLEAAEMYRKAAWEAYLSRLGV
UniProt Q70CQ2: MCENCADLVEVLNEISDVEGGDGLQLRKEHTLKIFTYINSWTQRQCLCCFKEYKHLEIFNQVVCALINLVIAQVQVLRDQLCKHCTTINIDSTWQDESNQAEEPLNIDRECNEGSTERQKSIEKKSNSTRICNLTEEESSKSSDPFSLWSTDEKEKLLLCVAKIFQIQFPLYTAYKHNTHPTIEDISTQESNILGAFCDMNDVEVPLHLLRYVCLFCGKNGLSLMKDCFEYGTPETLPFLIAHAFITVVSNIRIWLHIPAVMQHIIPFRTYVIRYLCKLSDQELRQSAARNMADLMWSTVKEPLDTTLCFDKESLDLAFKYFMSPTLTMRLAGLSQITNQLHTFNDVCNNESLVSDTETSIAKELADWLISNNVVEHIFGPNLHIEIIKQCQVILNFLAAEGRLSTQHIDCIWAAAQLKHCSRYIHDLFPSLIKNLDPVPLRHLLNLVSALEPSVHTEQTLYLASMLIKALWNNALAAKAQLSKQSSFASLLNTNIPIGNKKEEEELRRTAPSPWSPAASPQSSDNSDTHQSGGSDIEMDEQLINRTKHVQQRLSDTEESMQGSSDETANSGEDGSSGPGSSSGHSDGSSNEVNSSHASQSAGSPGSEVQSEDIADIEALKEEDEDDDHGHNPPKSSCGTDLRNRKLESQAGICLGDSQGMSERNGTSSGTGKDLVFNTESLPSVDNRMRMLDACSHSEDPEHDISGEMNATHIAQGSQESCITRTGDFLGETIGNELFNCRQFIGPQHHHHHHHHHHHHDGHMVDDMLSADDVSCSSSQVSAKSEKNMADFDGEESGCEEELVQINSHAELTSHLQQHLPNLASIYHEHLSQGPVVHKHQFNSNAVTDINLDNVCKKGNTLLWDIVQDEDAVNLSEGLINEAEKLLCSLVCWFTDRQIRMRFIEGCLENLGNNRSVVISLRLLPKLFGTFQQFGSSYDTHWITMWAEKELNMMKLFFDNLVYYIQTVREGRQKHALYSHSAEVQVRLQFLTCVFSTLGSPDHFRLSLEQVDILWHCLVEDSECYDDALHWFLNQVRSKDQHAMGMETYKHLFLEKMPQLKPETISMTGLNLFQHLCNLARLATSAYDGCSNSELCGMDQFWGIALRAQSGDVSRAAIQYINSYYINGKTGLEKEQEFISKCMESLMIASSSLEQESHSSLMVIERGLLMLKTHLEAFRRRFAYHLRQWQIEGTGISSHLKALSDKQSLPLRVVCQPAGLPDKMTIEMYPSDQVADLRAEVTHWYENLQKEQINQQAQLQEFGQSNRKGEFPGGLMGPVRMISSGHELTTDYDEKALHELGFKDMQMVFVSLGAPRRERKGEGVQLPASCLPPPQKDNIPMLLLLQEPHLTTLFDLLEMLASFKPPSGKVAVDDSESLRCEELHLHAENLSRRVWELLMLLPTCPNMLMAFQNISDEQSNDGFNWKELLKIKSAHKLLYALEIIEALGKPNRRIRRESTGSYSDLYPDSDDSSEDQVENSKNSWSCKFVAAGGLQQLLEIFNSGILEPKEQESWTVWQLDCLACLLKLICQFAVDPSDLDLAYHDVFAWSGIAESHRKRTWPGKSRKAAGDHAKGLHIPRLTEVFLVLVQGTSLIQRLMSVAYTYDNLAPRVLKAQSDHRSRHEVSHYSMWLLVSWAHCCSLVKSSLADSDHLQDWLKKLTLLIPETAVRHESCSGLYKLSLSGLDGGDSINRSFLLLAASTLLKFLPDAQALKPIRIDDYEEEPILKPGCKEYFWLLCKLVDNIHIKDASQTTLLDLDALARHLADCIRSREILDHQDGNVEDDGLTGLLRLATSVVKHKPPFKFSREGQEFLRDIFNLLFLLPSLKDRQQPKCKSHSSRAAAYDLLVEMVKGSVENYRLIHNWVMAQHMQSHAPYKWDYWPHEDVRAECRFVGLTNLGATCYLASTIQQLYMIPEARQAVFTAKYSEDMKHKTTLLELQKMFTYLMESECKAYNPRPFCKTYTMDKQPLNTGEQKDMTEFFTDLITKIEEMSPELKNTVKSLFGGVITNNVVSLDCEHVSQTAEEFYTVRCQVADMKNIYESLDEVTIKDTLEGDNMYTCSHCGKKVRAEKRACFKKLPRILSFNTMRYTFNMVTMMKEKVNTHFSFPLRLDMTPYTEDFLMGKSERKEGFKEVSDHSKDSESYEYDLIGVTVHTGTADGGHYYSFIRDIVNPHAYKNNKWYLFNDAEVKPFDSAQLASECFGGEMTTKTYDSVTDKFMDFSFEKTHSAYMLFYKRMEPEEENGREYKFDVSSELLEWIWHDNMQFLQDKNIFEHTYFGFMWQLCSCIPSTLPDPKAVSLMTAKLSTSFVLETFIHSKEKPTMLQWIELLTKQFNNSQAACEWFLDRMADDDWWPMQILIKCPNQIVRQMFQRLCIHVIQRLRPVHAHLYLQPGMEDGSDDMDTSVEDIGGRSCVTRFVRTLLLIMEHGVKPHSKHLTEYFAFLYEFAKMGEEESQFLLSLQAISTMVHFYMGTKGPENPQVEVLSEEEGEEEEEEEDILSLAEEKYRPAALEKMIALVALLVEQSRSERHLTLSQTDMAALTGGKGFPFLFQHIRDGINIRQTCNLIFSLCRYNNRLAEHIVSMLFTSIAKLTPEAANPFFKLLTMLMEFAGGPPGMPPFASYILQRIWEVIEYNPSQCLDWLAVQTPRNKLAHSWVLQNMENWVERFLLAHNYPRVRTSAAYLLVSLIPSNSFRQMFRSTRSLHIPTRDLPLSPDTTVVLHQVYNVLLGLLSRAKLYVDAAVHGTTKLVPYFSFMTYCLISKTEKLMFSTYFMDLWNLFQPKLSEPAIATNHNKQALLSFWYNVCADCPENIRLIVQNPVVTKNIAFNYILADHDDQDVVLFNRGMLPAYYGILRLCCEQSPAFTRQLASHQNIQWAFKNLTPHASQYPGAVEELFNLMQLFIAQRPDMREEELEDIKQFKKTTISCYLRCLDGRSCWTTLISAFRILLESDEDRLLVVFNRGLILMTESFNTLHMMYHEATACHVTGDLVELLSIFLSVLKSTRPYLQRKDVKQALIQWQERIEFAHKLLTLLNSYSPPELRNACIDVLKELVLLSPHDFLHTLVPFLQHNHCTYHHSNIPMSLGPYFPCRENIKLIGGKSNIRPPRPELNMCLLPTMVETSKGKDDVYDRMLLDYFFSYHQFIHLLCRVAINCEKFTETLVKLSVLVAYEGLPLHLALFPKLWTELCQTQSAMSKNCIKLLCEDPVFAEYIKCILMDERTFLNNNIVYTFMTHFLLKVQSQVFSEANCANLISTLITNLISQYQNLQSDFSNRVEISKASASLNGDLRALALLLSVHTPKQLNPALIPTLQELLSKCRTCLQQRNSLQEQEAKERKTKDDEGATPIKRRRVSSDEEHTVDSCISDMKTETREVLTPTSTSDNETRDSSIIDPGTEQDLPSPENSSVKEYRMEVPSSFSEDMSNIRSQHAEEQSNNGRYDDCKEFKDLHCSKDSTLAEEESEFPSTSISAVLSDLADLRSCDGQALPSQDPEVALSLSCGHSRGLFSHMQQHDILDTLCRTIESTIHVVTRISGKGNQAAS
UniProt Q86UV5: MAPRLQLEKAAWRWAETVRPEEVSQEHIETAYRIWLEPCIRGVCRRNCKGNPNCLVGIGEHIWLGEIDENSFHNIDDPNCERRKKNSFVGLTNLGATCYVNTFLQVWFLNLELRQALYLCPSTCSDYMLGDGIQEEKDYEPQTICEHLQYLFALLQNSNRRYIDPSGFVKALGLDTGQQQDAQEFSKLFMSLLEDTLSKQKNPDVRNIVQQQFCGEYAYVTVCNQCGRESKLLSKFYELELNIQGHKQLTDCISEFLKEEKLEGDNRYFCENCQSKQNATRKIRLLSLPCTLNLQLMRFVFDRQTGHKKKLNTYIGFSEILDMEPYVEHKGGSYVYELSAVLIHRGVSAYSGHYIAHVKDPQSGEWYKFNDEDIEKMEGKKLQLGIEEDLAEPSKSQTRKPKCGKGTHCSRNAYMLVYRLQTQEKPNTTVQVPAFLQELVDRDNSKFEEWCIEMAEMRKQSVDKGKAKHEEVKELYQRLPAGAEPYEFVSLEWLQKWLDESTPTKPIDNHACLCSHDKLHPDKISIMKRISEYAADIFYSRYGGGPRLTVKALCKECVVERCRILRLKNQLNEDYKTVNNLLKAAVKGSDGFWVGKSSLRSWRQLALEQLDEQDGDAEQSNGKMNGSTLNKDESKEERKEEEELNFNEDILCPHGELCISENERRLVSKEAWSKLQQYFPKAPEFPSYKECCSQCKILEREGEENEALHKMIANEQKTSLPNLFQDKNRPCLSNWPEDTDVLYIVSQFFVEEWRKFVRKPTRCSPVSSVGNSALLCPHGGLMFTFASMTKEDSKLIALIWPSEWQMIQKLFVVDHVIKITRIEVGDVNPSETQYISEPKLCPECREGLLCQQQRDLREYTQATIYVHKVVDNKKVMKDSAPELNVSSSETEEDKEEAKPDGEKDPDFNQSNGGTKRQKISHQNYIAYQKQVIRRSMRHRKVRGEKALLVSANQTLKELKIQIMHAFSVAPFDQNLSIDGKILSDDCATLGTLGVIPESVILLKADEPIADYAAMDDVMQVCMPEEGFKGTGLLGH
UniProt Q96JH7: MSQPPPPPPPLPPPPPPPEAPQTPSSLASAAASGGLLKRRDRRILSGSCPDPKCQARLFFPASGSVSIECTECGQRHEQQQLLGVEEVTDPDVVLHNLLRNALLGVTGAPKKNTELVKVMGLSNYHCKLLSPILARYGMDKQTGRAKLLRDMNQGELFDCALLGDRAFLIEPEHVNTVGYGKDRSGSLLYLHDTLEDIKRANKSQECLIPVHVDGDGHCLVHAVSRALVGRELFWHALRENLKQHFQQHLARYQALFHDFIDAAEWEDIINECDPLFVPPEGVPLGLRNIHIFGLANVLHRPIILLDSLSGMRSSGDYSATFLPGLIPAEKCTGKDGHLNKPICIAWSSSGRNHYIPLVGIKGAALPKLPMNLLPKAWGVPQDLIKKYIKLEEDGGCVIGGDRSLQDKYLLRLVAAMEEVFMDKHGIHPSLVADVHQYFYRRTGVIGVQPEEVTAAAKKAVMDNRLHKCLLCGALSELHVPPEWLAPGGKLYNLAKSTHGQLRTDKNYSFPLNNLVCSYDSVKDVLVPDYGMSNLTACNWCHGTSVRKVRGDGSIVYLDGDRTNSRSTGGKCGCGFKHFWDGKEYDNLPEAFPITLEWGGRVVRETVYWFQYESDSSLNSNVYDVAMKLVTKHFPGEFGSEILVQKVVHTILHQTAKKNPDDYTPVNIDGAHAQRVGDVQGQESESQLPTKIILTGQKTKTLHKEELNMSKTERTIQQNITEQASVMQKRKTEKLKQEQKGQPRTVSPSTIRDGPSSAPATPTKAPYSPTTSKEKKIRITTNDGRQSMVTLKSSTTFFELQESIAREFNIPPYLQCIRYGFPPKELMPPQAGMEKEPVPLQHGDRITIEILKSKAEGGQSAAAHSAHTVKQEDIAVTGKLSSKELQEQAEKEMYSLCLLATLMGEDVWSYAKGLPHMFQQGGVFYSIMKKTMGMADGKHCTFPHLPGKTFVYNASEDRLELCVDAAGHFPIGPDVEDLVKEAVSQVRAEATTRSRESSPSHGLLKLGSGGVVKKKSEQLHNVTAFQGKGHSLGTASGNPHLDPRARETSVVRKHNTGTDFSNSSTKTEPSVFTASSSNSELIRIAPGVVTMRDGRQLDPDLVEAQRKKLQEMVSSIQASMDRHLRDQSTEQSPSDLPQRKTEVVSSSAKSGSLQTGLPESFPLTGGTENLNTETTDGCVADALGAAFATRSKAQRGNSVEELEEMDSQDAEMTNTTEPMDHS

Here are results for 21 targets from the supplement of paper PMC11732987, “Enantioselective OTUD7B fragment discovery through chemoproteomics screening and high-throughput optimisation” (Communications Chemistry, 2025).

Compound in the first test: ClCC(=O)N[C@@H]1CCCc2ccccc12
Kind of test: log2 mean competition ratio of IA-DTB cysteine labelling (DMSO/compound) (log2 ratio); higher = stronger cysteine engagement by compound. The conditions noted are these: 50 µM; treatment time: 4 h; cell line lysate: HEK293T. The protocol: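 IA-DTB competitive cysteine chemoproteomics in HEK293T RIPA lysate. Lysates were treated with compound 29 or 30 at 50 or 200 µM for 4 h, then IA-DTB (500 µM, 1 h), trypsin-digested, NeutrAvidin-enriched and analysed by diaPASEF. Competition ratio = intensity DMSO / intensity compound (n=4 treated, n=64 DMSO); binding: mean log2 CR ≥ 1 and p ≤ 0.05 plus QC filters. Target is the cysteine site.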
UQCRC2 C192 (UniProt P22695): the “log2 mean competition ratio” value is -0.077.

As to UQCRH C53 (UniProt P07919), the “log2 mean competition ratio” value is -0.108.

Consider VAV3 C187 (UniProt Q9UKW4), for which the “log2 mean competition ratio” value was -0.0502.

Take VPS13C C3707 (UniProt Q709C8): the “log2 mean competition ratio” value was 0.0327.

In the case of USP32 C1320 (UniProt Q8NFA0), the “log2 mean competition ratio” value is -0.00834.

As to UMPS C304 (UniProt P11172), the “log2 mean competition ratio” value was -0.42.

In the case of USP34 C132 (UniProt Q70CQ2), the “log2 mean competition ratio” value was 0.308.

In the case of VPS13C C2925 (UniProt Q709C8), the “log2 mean competition ratio” value worked out at 0.379.

As for VAC14 C114 (UniProt Q08AM6), the “log2 mean competition ratio” value stood at 0.394.

Regarding USP48 C850 (UniProt Q86UV5), the “log2 mean competition ratio” value is -0.204.

In the case of VCPIP1 C816 (UniProt Q96JH7), the “log2 mean competition ratio” value amounted to 0.235.

With UHRF1 C497 (UniProt Q96T88), the “log2 mean competition ratio” value is -0.195.

For URB2 C570 (UniProt Q14146), the “log2 mean competition ratio” value amounted to 0.251.

On to USP34 C111 (UniProt Q70CQ2), for which the “log2 mean competition ratio” value is -0.339.

In the case of UTP14A C522 (UniProt Q9BVJ6), the “log2 mean competition ratio” value was -0.204.

For the target VARS1 C381, the “log2 mean competition ratio” value is -0.00975.

Regarding VKORC1L1 C50, the “log2 mean competition ratio” value came out at 0.0731.

USP24 C1202 (UniProt Q9UPU5): the “log2 mean competition ratio” value came to 0.471.

For UTRN C3023 (UniProt P46939), the “log2 mean competition ratio” value stood at 0.443.

With USP14 C257 (UniProt P54578), the “log2 mean competition ratio” value was -0.133.

The test is the same for the next values; noted with them: 200 µM; treatment time: 4 h; cell line lysate: HEK293T.
Take UQCRC2 C192 (UniProt P22695): the “log2 mean competition ratio” value is -0.119.

With UQCRH C53 (UniProt P07919), the “log2 mean competition ratio” value is 0.173.

As to VAV3 C187 (UniProt Q9UKW4), the “log2 mean competition ratio” value came to 0.341.

Take VPS13C C3707 (UniProt Q709C8): the “log2 mean competition ratio” value was -0.0219.

With USP32 C1320 (UniProt Q8NFA0), the “log2 mean competition ratio” value turned out to be 0.14.

On to UMPS C304 (UniProt P11172), for which the “log2 mean competition ratio” value is -0.0976.

As for USP34 C132 (UniProt Q70CQ2), the “log2 mean competition ratio” value came to 0.21.

As to VPS13C C2925 (UniProt Q709C8), the “log2 mean competition ratio” value was 0.387.

With VAC14 C114 (UniProt Q08AM6), the “log2 mean competition ratio” value came out at 0.0713.

In the case of UTP23 C60 (UniProt Q9BRU9), the “log2 mean competition ratio” value is 0.0534.

Regarding USP48 C850 (UniProt Q86UV5), the “log2 mean competition ratio” value is -0.102.

On to VCPIP1 C816 (UniProt Q96JH7), for which the “log2 mean competition ratio” value is -0.0767.

Consider UHRF1 C497 (UniProt Q96T88), for which the “log2 mean competition ratio” value was determined as 0.0573.

Turning to URB2 C570 (UniProt Q14146), the “log2 mean competition ratio” value was determined as 0.729.

On to USP34 C111 (UniProt Q70CQ2), for which the “log2 mean competition ratio” value was -0.0451.

As to UTP14A C522 (UniProt Q9BVJ6), the “log2 mean competition ratio” value turned out to be 0.107.

For the target VARS1 C381, the “log2 mean competition ratio” value was 0.0727.

For the target VKORC1L1 C50, the “log2 mean competition ratio” value was determined as 6.33e-05.

For USP24 C1202 (UniProt Q9UPU5), the “log2 mean competition ratio” value is -0.061.

Take UTRN C3023 (UniProt P46939): the “log2 mean competition ratio” value stood at 0.0612.

In the case of USP14 C257 (UniProt P54578), the “log2 mean competition ratio” value was -0.116.
